According to paper PMC7862700:
This is a selection; strong and weak results do not stand in their true shares. For some of these results: At the low end of the ranking, values are background and their order means little. Some of the results follow. For some of these results: Construct or isoform of the protein are uncertain.

Tests used:
ETS1 = molecular target: T1, ETS1 (UniProt P14921); assay: DAPPL (digital affinity profiling via proximity ligation, sequencing); details: 10 mM Tris-HCl pH 7.5, 50 mM NaCl, 1 mM DTT, 4% glycerol, room temperature, 30 min; GST-TFs on glutathione beads, 16-mer random dsDNA library, 0.1% …; high values mean tight binding; double strand, one strand shown; scale: fold enrichment (6-mer frequency, TF over GST control)
T1 sequence: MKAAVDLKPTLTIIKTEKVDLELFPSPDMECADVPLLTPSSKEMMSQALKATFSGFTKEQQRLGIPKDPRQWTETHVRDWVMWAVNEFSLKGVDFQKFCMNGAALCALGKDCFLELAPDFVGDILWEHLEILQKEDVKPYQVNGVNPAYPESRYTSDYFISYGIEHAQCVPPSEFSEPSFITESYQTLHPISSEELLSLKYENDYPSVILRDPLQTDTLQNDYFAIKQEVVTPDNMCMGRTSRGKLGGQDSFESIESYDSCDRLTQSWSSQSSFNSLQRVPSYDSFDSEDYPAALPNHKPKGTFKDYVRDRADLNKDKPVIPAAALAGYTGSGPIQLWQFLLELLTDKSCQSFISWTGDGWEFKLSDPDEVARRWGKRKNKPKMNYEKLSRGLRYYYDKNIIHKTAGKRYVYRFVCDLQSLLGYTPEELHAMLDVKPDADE

SPDEF = molecular target: T2, SPDEF (UniProt O95238); assay: as above; details: 10 mM Tris-HCl pH 7.5, 50 mM NaCl, 1 mM DTT, 4% glycerol, room temperature, 30 min; GST-TFs on glutathione beads, 16-mer random dsDNA library, 0.1% …; high values mean tight binding; double strand, one strand shown; scale: fold enrichment (6-mer frequency, TF over GST control)
T2 sequence: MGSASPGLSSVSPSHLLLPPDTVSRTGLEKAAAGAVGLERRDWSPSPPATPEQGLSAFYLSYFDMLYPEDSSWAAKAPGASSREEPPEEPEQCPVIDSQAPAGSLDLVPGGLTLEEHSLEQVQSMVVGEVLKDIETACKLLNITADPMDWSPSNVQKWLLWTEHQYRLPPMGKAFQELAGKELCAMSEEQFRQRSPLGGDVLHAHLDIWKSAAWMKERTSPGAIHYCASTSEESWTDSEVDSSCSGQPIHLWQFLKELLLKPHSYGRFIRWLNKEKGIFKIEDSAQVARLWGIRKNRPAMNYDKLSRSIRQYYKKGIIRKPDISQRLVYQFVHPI

TTAGGG
binding signal (ETS1): 1.12
binding signal (SPDEF): 1.18

ATCACC
binding signal (ETS1): 1.09
binding signal (SPDEF): 1.12

GATGCT
binding signal (ETS1): 1.2
binding signal (SPDEF): 1.2

CTGCCT
binding signal (ETS1): 1.3
binding signal (SPDEF): 1.31

ATCATT
binding signal (ETS1): 1.05
binding signal (SPDEF): 0.953

ACTTCA
binding signal (ETS1): 1.37
binding signal (SPDEF): 1.37

AATGAT
binding signal (ETS1): 1.13
binding signal (SPDEF): 1.13

CTAAGC
binding signal (ETS1): 1.12
binding signal (SPDEF): 1.06

CCAATG
binding signal (ETS1): 1.24
binding signal (SPDEF): 1.02

AAAGAC
binding signal (ETS1): 1.11
binding signal (SPDEF): 1.01

GAACAT
binding signal (ETS1): 1.07
binding signal (SPDEF): 0.981

CTAAGT
binding signal (ETS1): 1.19
binding signal (SPDEF): 1.3

TGAACT
binding signal (ETS1): 1.2
binding signal (SPDEF): 1.16

ATGTCA
binding signal (ETS1): 1.13
binding signal (SPDEF): 1.1

CCGCCC
binding signal (ETS1): 1.36
binding signal (SPDEF): 1.27

AGCTTC
binding signal (ETS1): 1.83
binding signal (SPDEF): 1.67

AATAAC
binding signal (ETS1): 1.3
binding signal (SPDEF): 1.21

GAATAA
binding signal (ETS1): 1.14
binding signal (SPDEF): 1.09

CTGATA
binding signal (ETS1): 1.1
binding signal (SPDEF): 1.15

TTACCC
binding signal (ETS1): 1.4
binding signal (SPDEF): 1.33

TCTTCT
binding signal (ETS1): 1.24
binding signal (SPDEF): 1.16

GCTCGC
binding signal (ETS1): 1.36
binding signal (SPDEF): 1.29

GAACTC
binding signal (ETS1): 1.38
binding signal (SPDEF): 1.33

ATACTA
binding signal (ETS1): 1.23
binding signal (SPDEF): 1.17

TGTTAT
binding signal (ETS1): 1.45
binding signal (SPDEF): 1.41

ATGTGT
binding signal (ETS1): 1.12
binding signal (SPDEF): 1.23

ATGGCC
binding signal (ETS1): 1.51
binding signal (SPDEF): 1.32

ATTTGA
binding signal (ETS1): 1.25
binding signal (SPDEF): 1.19

GCACCC
binding signal (ETS1): 1.26
binding signal (SPDEF): 1.17

CTTGCA
binding signal (ETS1): 1.49
binding signal (SPDEF): 1.49

TCTGTC
binding signal (ETS1): 1.13
binding signal (SPDEF): 1.15

TGCACT
binding signal (ETS1): 1.24
binding signal (SPDEF): 1.4

ATAGAA
binding signal (ETS1): 1.1
binding signal (SPDEF): 1.02

CCTATT
binding signal (ETS1): 1.65
binding signal (SPDEF): 1.51

TAACTC
binding signal (ETS1): 1.26
binding signal (SPDEF): 1.23

TCCCCT
binding signal (ETS1): 1.62
binding signal (SPDEF): 1.54

TTAAAA
binding signal (ETS1): 1.28
binding signal (SPDEF): 1.15

CCTCGT
binding signal (ETS1): 1.16
binding signal (SPDEF): 1.19

TTTTAA
binding signal (ETS1): 1.28
binding signal (SPDEF): 1.21

TGCGCG
binding signal (ETS1): 1.07
binding signal (SPDEF): 0.972

TTAGTA
binding signal (ETS1): 1.22
binding signal (SPDEF): 1.12

TAACAT
binding signal (ETS1): 1.43
binding signal (SPDEF): 1.34

AATGGG
binding signal (ETS1): 1.21
binding signal (SPDEF): 1.12

ACTGCT
binding signal (ETS1): 1.57
binding signal (SPDEF): 1.26

GTATTT
binding signal (ETS1): 1.51
binding signal (SPDEF): 1.64

TGGTGT
binding signal (ETS1): 1.23
binding signal (SPDEF): 1.23

CTCTGA
binding signal (ETS1): 1.12
binding signal (SPDEF): 1.11

CCTACG
binding signal (ETS1): 1.35
binding signal (SPDEF): 1.41

ACGATC
binding signal (ETS1): 1.13
binding signal (SPDEF): 0.984

TGGACC
binding signal (ETS1): 1.02
binding signal (SPDEF): 1.05

CTAAAG
binding signal (ETS1): 1.29
binding signal (SPDEF): 1.26

ATCGCC
binding signal (ETS1): 1.14
binding signal (SPDEF): 1.12

CATTTA
binding signal (ETS1): 1.23
binding signal (SPDEF): 1.22

ATACAG
binding signal (ETS1): 1.13
binding signal (SPDEF): 1.21

CTTTAA
binding signal (ETS1): 1.28
binding signal (SPDEF): 1.28

AATCGA
binding signal (ETS1): 1.08
binding signal (SPDEF): 0.927

AGAAGC
binding signal (ETS1): 1.18
binding signal (SPDEF): 1.15

TTATTT
binding signal (ETS1): 1.37
binding signal (SPDEF): 1.19

CTCACT
binding signal (ETS1): 1.55
binding signal (SPDEF): 1.44

TCTCCG
binding signal (ETS1): 1.47
binding signal (SPDEF): 1.65

GTACTT
binding signal (ETS1): 1.94
binding signal (SPDEF): 2.57

ATCCAA
binding signal (ETS1): 1.14
binding signal (SPDEF): 1.22

ATGGAA
binding signal (ETS1): 1.15
binding signal (SPDEF): 1.2

TCGTAC
binding signal (ETS1): 1.07
binding signal (SPDEF): 1.06

ACAATC
binding signal (ETS1): 1.18
binding signal (SPDEF): 1.16

TATAAG
binding signal (ETS1): 1.12
binding signal (SPDEF): 1.2

CGACGA
binding signal (ETS1): 1.12
binding signal (SPDEF): 1.13

ACATTA
binding signal (ETS1): 1.15
binding signal (SPDEF): 1.12

ACCTCG
binding signal (ETS1): 1.17
binding signal (SPDEF): 1.06

TGCTTC
binding signal (ETS1): 2.02
binding signal (SPDEF): 2.39

CCTCTT
binding signal (ETS1): 1.54
binding signal (SPDEF): 1.57
